{"source": "paper doi:10.1101/2025.06.16.658187", "binders": {"B1": {"name": "Tripartite motif-containing 28 (TRIM28), endogenous in BJ^T cells, Q13263 1-835 (protein)", "chain": "MAASAAAASAAAASAASGSPGPGEGSAGGEKRSTAPSAAASASASAAASSPAGGGAEALELLEHCGVCRERLRPEREPRLLPCLHSACSACLGPAAPAAANSSGDGGAAGDGTVVDCPVCKQQCFSKDIVENYFMRDSGSKAATDAQDANQCCTSCEDNAPATSYCVECSEPLCETCVEAHQRVKYTKDHTVRSTGPAKSRDGERTVYCNVHKHEPLVLFCESCDTLTCRDCQLNAHKDHQYQFLEDAVRNQRKLLASLVKRLGDKHATLQKSTKEVRSSIRQVSDVQKRVQVDVKMAILQIMKELNKRGRVLVNDAQKVTEGQQERLERQHWTMTKIQKHQEHILRFASWALESDNNTALLLSKKLIYFQLHRALKMIVDPVEPHGEMKFQWDLNAWTKSAEAFGKIVAERPGTNSTGPAPMAPPRAPGPLSKQGSGSSQPMEVQEGYGFGSGDDPYSSAEPHVSGVKRSRSGEGEVSGLMRKVPRVSLERLDLDLTADSQPPVFKVFPGSTTEDYNLIVIERGAAAAATGQPGTAPAGTPGAPPLAGMAIVKEEETEAAIGAPPTATEGPETKPVLMALAEGPGAEGPRLASPSGSTSSGLEVVAPEGTSAPGGGPGTLDDSATICRVCQKPGDLVMCNQCEFCFHLDCHLPALQDVPGEEWSCSLCHVLPDLKEEDGSLSLDGADSTGVVAKLSPANQRKCERVLLALFCHEPCRPLHQLATDSTFSLDQPGGTLDLTLIRARLQEKLSPPYSSPQEFAQDVGRMFKQFNKLTEDKADVQSIIGLQRFFETRMNEAFGDTKFSAVLVEPPPMSLPGAGLSSQELSGGPGDGP"}}, "target": "T1, Flag-tagged TRF1, P54274", "T1 chain": "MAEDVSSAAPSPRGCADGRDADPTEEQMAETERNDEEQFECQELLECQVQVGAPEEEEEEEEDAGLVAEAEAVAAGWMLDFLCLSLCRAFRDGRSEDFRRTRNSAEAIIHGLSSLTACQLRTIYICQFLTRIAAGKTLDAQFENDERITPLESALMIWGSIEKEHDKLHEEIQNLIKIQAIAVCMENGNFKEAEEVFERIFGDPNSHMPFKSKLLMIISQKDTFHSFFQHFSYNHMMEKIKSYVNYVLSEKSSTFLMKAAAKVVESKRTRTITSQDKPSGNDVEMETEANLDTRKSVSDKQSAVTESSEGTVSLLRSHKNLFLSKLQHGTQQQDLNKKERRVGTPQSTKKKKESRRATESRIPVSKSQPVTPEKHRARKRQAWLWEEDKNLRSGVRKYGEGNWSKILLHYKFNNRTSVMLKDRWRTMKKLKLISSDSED", "assay": "co-IP", "settings": "remark: other sources report otherwise", "note": "No constants are given. Whether binding was seen depends on the method and setting. Binding seen in cells or lysates may run through a third protein. Sequences can lack the tags named with a protein.", "data": [{"binder": "B1", "values": [{"measurement": "binding", "result": "no binding"}]}]}
